These are yes or no findings as the source states them, for the method shown. In cells and extracts the contact can be indirect. Here binding means that the protein was enriched with, or labelled near, the bait; the list need not be complete. Blank lines part the entries; values can stand above or below the binder they belong to.
Target: anaCyp40 with C-terminal Strep-tag (Anabaena sp. PCC 7120)
Assay: affinity purification with mass spectrometry; Strep-tagged anaCyp40 from whole cell lysate of AFS-anacyp40-strep (1% β-DM, 100 mM Tris pH 8.0, 50 mM NaCl) on MagStrep type3 XT beads, 60 min at 4 °C; washes up to 100 mM NaCl and 0.5% Nonidet P-40; eluted with 50 mM D-biotin; wild-type Anabaena sp. as control; lysate not treated with RNAse or DNAse; LC-MS, p < 0.05

B2: L4 (protein, UniProt Q8YPI0 1-210)
chain: MVESVVKNWQGEQIGQKTFELRVAKETTAAHIVHRALVRQQTNARQGTASTKTRAEVRGGGRKPWRQKGTGRARAGSIRSPLWRGGGVIFGPKPRDFDLKMNRKERRLALRTAFVSRIDDLILVEEFSNELSRPKTKDLVAAFTRWGAEPESKILLILSEFPENVYLSARNIENLKLIAADQLNVYDLLHADKIVVTTSALEKIQEVYNG
binding: binds

B3: L19 (protein, UniProt Q8YLK1 1-120)
chain: MSAQEIIRSIEAEQLKSNLPEIYIGDTVRVGVKIKEGEKYRVQPYEGVVIARRNGGINETITVRRVFQGVGVERVFLLHSPRIDNIKVLRRGKVRRAKLYYLRGRVGKATRIKQRFDRSL
binding: binds

B4: ApcA1 (protein, UniProt P80555 1-161)
chain: MSIVTKSIVNADAEARYLSPGELDRIKSFVAGGQQRLRIAQALTDNRERLVKQAGDQLFQKRPDVVSPGGNAYGQEMTATCLRDLDYYLRLVTYGIVAGDVTPIEEIGVIGVREMYKSLGTPIEAVGEGVRALKNAASTLLSAEDAAEAGSYFDYVVGALQ
binding: binds

B6: L14 (protein, UniProt Q8YPI9 1-122)
chain: MIQPQTYLNVADNSGARKLMCIRVLGAGNSRYGFIGDKIIAVVKDATPNMAVKKSDVVEAVIVRTRHHIRRDSGMTIRFDDNAAVIINKDGNPRGTRVFGPVARELRDKNFTKIVSLAPEVL
binding: binds

B7: S2 (protein, UniProt Q8YMY2 1-265)
chain: MPVVSLAQMMESGVHFGHQTRRWNPKMSPYIYTSRNGVHIIDLVQTAHLMDEAYNYMRSQAEQGKKFLFVGTKRQAAGIIAQEAARCGSHYINQRWLGGMLTNWATIKTRVDRLKDLERREESGALDLLPKKEASMLRRELAKLQKYLGGIKTMRKVPDVVVIVDQRREYNAVQECQKLSIPIVSMLDTNCDPDVVDIPIPANDDAIRSIKLIVGKLADAIYEGRHGQLDVEEEYEDYEGSEEDYDYDETEYADSVIPEDGEEAE
binding: binds

B10: ApcB (protein, UniProt P80557 1-162)
chain: MAQDAITAVINSADVQGKYLDTAALEKLKAYFSTGELRVRAATTISANAAAIVKEAVAKSLLYSDITRPGGNMYTTRRYAACIRDLDYYLRYATYAMLAGDPSILDERVLNGLKETYNSLGVPVGATVQAIQAIKEVTASLVGADAGKEMGIYLDYISSGLS
binding: binds

Results, then the binder that gave them:

binding: binds
B1: AtpD (protein, UniProt P06540 1-482)
chain: MVTTAEKTNIGYITQIIGPVVDVKFPNGKLPQIYNALTIKGTNEAGQQLNLTVEVQQLLGDNQIRAVAMSSTDGLVRGLEVVDTGAPISVPVGKATLGRIFNVLGEPVDNRGPVNNQETLPIHRPAPKLTELETKPSVFETGIKVVDLLTPYRRGGKIGLFGGAGVGKTVIMMELINNIATQHGGVSVFAGVGERTREGNDLYNEMIESGVINNENLNESKIALVYGQMNEPPGARMRVGLSGLTMAEYFRDVNKQDVLLFIDNIFRFVQAGSEVSALLGRMPSAVGYQPTLGTDVGQLQERITSTTEGSITSIQAVYVPADDLTDPAPATTFAHLDGTTVLSRGLASKGIYPAVDPLGSTSTMLQPNIVGDEHYNTARAVQSTLQRYKELQDIIAILGLDELSEEDRLIVARARKVERFLSQPFFVAEVFTGSPGKYVKLEDTIKGFQKILSGELDDLPEQAFYLVGDINEAIAKAEKIKG

binding: binds
B5: PecC (protein, UniProt P31329 1-278)
chain: MSSSVAERLAIRDAIGNKVELRQNWSEDDLQKVFRAAYEQIFGRQGIYASQKFTSAEALLRNGKISVRQFVEILAKSEFYKECFFYKNSQVRLIELNYKHLLGRAPYDQSEIADHVDIYAARGYDADIDAYIYSSEYENAFGNSIVPYYRGFQSIPGMKTVGFNRICELYRGRGNSDNAQMGRTNSRLRTKVSLNLPNGILPPTSAGTNFVSAAPTLISSATKGDNRMFVIEAIAGGLNTNVAVRRSRQVYTVSYERLSATYQEIHKRGGKIVKISQV

binding: binds
B8: AtpC (protein, UniProt P12408 1-315)
chain: MPNLKSIRDRIQSVKNTKKITEAMRLVAAARVRRAQEQVIATRPFADRLAQVLYGLQTRLRFEDVDLPLLKKREVKSVGLLVISGDRGLCGGYNTNVIRRAENRAKELKAEGLDYTFVIVGRKAEQYFRRREQPIDASYTGLEQIPTADEANKIADELLSLFLSEKVDRIELVYTRFVSLVSSRPVIQTLLPLDTQGLEAADDEIFRLTTRGGQFQVERQTVTSQARPLPRDMIFEQDPVQILDSLLPLYLSNQLLRALQESAASELAARMTAMSNASENAGELIKSLSLSYNKARQAAITQELLEVVGGAEALT

binding: binds
B9: ApcC (protein, UniProt P80558 1-68)
chain: MSRLFKITALVPSLSRTRTQRELQNTYFTKLVPYENWFREQQRIQKAGGKIIKVELATGKQGTNAGLQ

binding: binds
B11: ApcE (protein, UniProt P80559 1-1132)
chain: MSVKASGGSSVARPQLYQTLAVATITQAEQQDRFLGRGELDELASYFASGAKRLEIAQLLTENSEIIVSRAANRIFVGGSPMAFLEKPREPELAMAAVGGGGDVRESMKLGTVTYVETRGGFLENLRSIFNTSPSGPTPPGFRPINIARYGPSNMAKSLRDLSWFLRYATYAIVAGDPNIIVVNTRGLREIIENACSGEATIVALQEIKAASLSYFRKDPEAAEIVSQYMDVLITEFKAPTPSNKLRQRPSGDQQGLQLPQIYFSAAERRPKFVMKTGLSATEKNEVIKAAYRQIFERDITRAYSLSISDLESKVKNGDISMKEFVRRLAKSPLYQKQFYQPFINSRVIELAFRHILGRGPSSREEVQKYFSIISNGGLPALVDALVDSAEYSDYFGEETVPYLRGLGQEAQECRNWGPQQDLFNYSAPFRKVPQFITTFAAYDRPLPDQHPYGSGNDPLEIQFGAIFPKETRNPSTSPAPFGKDTRRILIHQGPGINNQVSNPSARGLAPGSLGPKVFKLDQLPGTIGKKAAKGASVKFSESSTQAVIKATYLQVFGRDVYEGQRLKVQEIKLENGEISVRDFVRALAKSDLFRKLYWTPFYVCKAIEYIHRRLLGRPTYGRQENNKYFDIASKKGLYAVVDAILDSLEYTETFGEDTVPYERYLTPAGVALRQLRVGTIREDVANVEKQETPRFVELGTVKENRTQPDIDFRINQGVTKQREQTKVFKRVAGIKDKAAIKTLISAAYRQIFERDIAPYIAQNEFSGWESKLGNGEITVKEFIEGLGYSNLYLKEFYTPYPNTKVIELGTKHFLGRAPIDQAEIRKYNQILATQGIRAFINALVNSQEYNEVFGEDTVPYRRFPTLPAANFPNTQKLYNQLTKQNNDVVIPSFKPVQARIQSDKTPILAKAIADLAAQAKQMDKSKPLFIELGRSYNDGRGQSVEVGVGTTRRKPARIYRLTNGIGQAEKQLVINAIYRQVLDVFSGQVPDYYRRTELDSKLRNGEISVREFVREIASSEIYRKRFYTPYPNTKVIEFLFRHLLGRAPATQGEIRQYNKLLADNGLRAAVEAIVDSPEYSRYFGEDVVPYPRFPSLPAGNYLGSVQAAADLVKQSWSSLSPSTLTGRPGDR

binding: binds
B12: CpcG4 (protein, UniProt P29989 1-253)
chain: MALPLLQYKPSSQNHRVTSFGAADQNEDTPYIYRIEDVSSYTDIQNIIWASYRQVFSEHEILKFNRQKTLESQVKNGSISVRDFIRGLAKSEAFYRLVVSVNNNYRLVDITLKRLLGRSSYNKDEQIAWSIVIGTKGFSGFVDALIDSEEYTKNFGENIVPYQRKRMEGRPHNLVTPRYGEDFQEKAGTVQTDWRFTLDKFYSRKSQEKQLREGDPRKFADLAASVGNQGNYAQRISAFDIDYLNAVPNRSRR

From PMC8967839
